Experimental findings from PMC7819943, “Rice protein-binding microarrays: a tool to detect cis-acting elements near promoter regions in rice” are described below.

Protein sequences, listed by entry. Tags and fused reporters are not part of them.
UniProt Q0JBA9, entry or part of it: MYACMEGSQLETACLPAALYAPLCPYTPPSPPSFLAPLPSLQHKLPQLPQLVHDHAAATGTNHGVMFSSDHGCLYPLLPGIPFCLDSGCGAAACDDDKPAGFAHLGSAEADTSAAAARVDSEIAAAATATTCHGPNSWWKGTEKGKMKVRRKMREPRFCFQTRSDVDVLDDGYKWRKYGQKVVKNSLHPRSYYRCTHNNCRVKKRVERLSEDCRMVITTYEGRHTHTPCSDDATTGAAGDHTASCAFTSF

The list shows a part of the results.

For this experiment, the target named is OsWRKY34 (Oryza sativa, UniProt Q0JBA9 1-250). Put plainly: protein-binding microarray (RPBM); PBS, 2% BSA, 51.3 ng/ul salmon testes DNA, 50 uM zinc acetate, 200 nM TF, 25 C, 1 h; high values mean tight binding. As to conditions: protein: recombinant; tags: N-terminal polyhistidine and DsRed monomer fusion (pET32a); label: CyDye5-dUTP incorporated in the synthesized complementary strand; 3' TTTTT single-stranded linker to array surface; dsDNA, one strand shown. In a few lines:
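The binding signal is fluorescence intensity per array feature (arbitrary units). Readings came from an Axon 4000B scanner after a washed, 2% BSA-blocked, double-stranded custom Agilent array had been incubated for 1 h at 25 °C with 200 nM protein and 50 µM zinc acetate. The protein was a Ni–NTA-purified transcription factor fused N-terminally to polyhistidine and DsRed, expressed in E. coli BL21-CodonPlus.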
Take “TTTTAAGCATCCAAACTGCGGTCATATGGCCATTTTTGATCGGAGTCACCTAGTGCAG”: the binding signal was 8910 fluorescence intensity (a.u.).
Consider “ACTACTTATTGTTATTGGCTTGTTACATCATTCGGTGCTCCGGAGTCACCTAGTGCAG”, for which the binding signal was 9730 fluorescence intensity (a.u.).
The value for “CGGTGGCCTCACCCTGCTGTTTCACTTTCACCTCGCCGTCCGGAGTCACCTAGTGCAG” was 8880 fluorescence intensity (a.u.); that for “TCATCAAAAGTTGGTTTAGGTCCCATTCGTTTATCCAACACGGAGTCACCTAGTGCAG” was 9220 fluorescence intensity (a.u.).
The result for “CGCGCGGACACGCCCCGTTCTCTCCAATCCAACCACTTAACGGAGTCACCTAGTGCAG” reads 8050 fluorescence intensity (a.u.); that for “TTGTGTCTGTTTTCGTGTGCTTTATCCAAATAGTCACTCACGGAGTCACCTAGTGCAG”, 9560 fluorescence intensity (a.u.).
The value for “GTTTTGACCCCGCGGTTTTGACTCCGGTTTTATCCCACGTCGGAGTCACCTAGTGCAG” was 10900 fluorescence intensity (a.u.).
Consider “GATCCCTTGTTTGATATGTGTACTCCAGTGTTAACTTACCCGGAGTCACCTAGTGCAG”, for which the binding signal was 9060 fluorescence intensity (a.u.).
The result for “GGGATATCTCGCCCCTTTTTCTAGTATTTTTTTTTCTTTTCGGAGTCACCTAGTGCAG” reads 11700 fluorescence intensity (a.u.).
As for “ATTTTCACCCTCTGGGTTGCTTATTGATCATACGATCCTTCGGAGTCACCTAGTGCAG”, the binding signal is 9580 fluorescence intensity (a.u.).
The value for “AGCACCACTCATCCAGCTTCCAGCCGCCTTCGCGCACCACCGGAGTCACCTAGTGCAG” was 10900 fluorescence intensity (a.u.); that for “ATAATCTTTGTCTTTTGTTTGCTTGATATCGTACTACGTGCGGAGTCACCTAGTGCAG” was 8440 fluorescence intensity (a.u.); that for “GTTTTGCGTATCTTCTTAATCTCTTCTTGGCTTCTCTCAACGGAGTCACCTAGTGCAG” was 11600 fluorescence intensity (a.u.).
For the sequence “GTGGTTATTCAATTTGTTGCTTGTTTTTGTTTCAAGTTGGCGGAGTCACCTAGTGCAG”, the binding signal was 10700 fluorescence intensity (a.u.).
The result for “ATTCCTTTCTGTAATCTAATCCGGACGCTGTTGTTGTGACCGGAGTCACCTAGTGCAG” reads 10300 fluorescence intensity (a.u.); that for “TTTTTTAATTCCGCATTTCATTCTTTTCTAAATTATATTCCGGAGTCACCTAGTGCAG”, 11900 fluorescence intensity (a.u.); that for “TCAGGTTGACTTTGGTCAAAATTAAGCGGATTTAAGTTTGCGGAGTCACCTAGTGCAG”, 9600 fluorescence intensity (a.u.).
As to “TCCCCGTTACCGAGCGCCGCCGCCTCCGCCTCCACCTCTACGGAGTCACCTAGTGCAG”, the binding signal is 10100 fluorescence intensity (a.u.).
The result for “ATACTGTTTCTTGTCGATCTATTGTCAATTTGTCATAGTACGGAGTCACCTAGTGCAG” reads 8510 fluorescence intensity (a.u.); that for “ATGTTTGCGCTGTAAGATATTCCTTCTGTTTTAAAATATACGGAGTCACCTAGTGCAG”, 9910 fluorescence intensity (a.u.).
The value for “ATCGTATTTCTGTCTAGTCCAGCGTCGCCTTAATTGGCCTCGGAGTCACCTAGTGCAG” was 8640 fluorescence intensity (a.u.).
The value for “TCTCCTCCATCTCCTCGCTTCGTCCCGTTCACACCACCACCGGAGTCACCTAGTGCAG” was 8970 fluorescence intensity (a.u.); that for “CCCATCGCCGTCCCCATCATCGCCGAGGTCGACCTCTACACGGAGTCACCTAGTGCAG” was 9940 fluorescence intensity (a.u.); that for “TCGGTCAAACGTCCTCCGGCAGACGTTGACCACATTTCTGCGGAGTCACCTAGTGCAG” was 14000 fluorescence intensity (a.u.).
“AGCACTAGGAGTCGGTGTAAGTGCATCTCTCTCCTCTCTCCGGAGTCACCTAGTGCAG”: the binding signal was 9690 fluorescence intensity (a.u.).
The value for “TCCTCCTGCTCCACCGCACTCTGCAGTCCGCACCCGCGCGCGGAGTCACCTAGTGCAG” was 10700 fluorescence intensity (a.u.); that for “TGTACATGTCAGCTCATCTCACTCTCGACTACTTGGCTTCCGGAGTCACCTAGTGCAG” was 8770 fluorescence intensity (a.u.); that for “ATTGACTTTTTTAAAAATGTTTGACCATTCGTCTTATTCACGGAGTCACCTAGTGCAG” was 9010 fluorescence intensity (a.u.).
The result for “AATTTGGTCTCTACTTTCTTTTGTCATTGAAATGATGAATCGGAGTCACCTAGTGCAG” reads 8450 fluorescence intensity (a.u.); that for “TCATTGCTATCATCAGCTAGTGTATTTTTATTGGTTAACACGGAGTCACCTAGTGCAG”, 9540 fluorescence intensity (a.u.).
The result for “TAACTCTTCTTTTAGTCTAAACCGTCATGATTTGGTCCATCGGAGTCACCTAGTGCAG” reads 8540 fluorescence intensity (a.u.).
With “GTCTATCAATCTGCATTTGACTAGCTTGCAGCTAGCACTTCGGAGTCACCTAGTGCAG”, the binding signal was 8320 fluorescence intensity (a.u.).
The result for “TGACTCGTGTCAACATCTCATTTCACCATTTGTAACAGTTCGGAGTCACCTAGTGCAG” reads 8560 fluorescence intensity (a.u.); that for “ATCATTCTCCACGTACGCATGCCTCTCTTGCGTGTTATCGCGGAGTCACCTAGTGCAG”, 8820 fluorescence intensity (a.u.).
The value for “GCTTTCTTCATGGTTTGTTTTTGGTAGCTATGGAACCACGCGGAGTCACCTAGTGCAG” was 11100 fluorescence intensity (a.u.).
The value for “ATCTGGAATCCAACGCCTGACCTCGCCGCGCGGCGGCATGCGGAGTCACCTAGTGCAG” was 8610 fluorescence intensity (a.u.); that for “CAATGAGAATTACTCATCTCTCTCCCTCTCGTTTCATTCTCGGAGTCACCTAGTGCAG” was 9480 fluorescence intensity (a.u.).
As to “GCTTATGCATTCTGCTGCACGTTTTGTTCACCAGTGGTTTCGGAGTCACCTAGTGCAG”, the binding signal was 9410 fluorescence intensity (a.u.).
Turning to “GATGAACGGTCAAACATGTTAAAAAAGTCAACGACGTTACCGGAGTCACCTAGTGCAG”, the binding signal is 13200 fluorescence intensity (a.u.).
As to “GGATCTGGGCGTTGACTTGTCAACGACAGATATTTCTTGGCGGAGTCACCTAGTGCAG”, the binding signal was 8790 fluorescence intensity (a.u.).
With “ACGTGGTACAATTCTGACTCTTTCTGTAAATAGTAAATGGCGGAGTCACCTAGTGCAG”, the binding signal is 8550 fluorescence intensity (a.u.).
As to “CGCTTTTCCGAACCCTTTCCATTTTTTCCACCCACACAGCCGGAGTCACCTAGTGCAG”, the binding signal was 10200 fluorescence intensity (a.u.).
